From the supplement of paper PMC10849652
The list shows a part of the results.

Protein sequences, listed by entry. Tags and fused reporters are not part of them. Lines headed by an entry give the natural chain unless they say otherwise; changes in a name come on top.
UniProt Q92896: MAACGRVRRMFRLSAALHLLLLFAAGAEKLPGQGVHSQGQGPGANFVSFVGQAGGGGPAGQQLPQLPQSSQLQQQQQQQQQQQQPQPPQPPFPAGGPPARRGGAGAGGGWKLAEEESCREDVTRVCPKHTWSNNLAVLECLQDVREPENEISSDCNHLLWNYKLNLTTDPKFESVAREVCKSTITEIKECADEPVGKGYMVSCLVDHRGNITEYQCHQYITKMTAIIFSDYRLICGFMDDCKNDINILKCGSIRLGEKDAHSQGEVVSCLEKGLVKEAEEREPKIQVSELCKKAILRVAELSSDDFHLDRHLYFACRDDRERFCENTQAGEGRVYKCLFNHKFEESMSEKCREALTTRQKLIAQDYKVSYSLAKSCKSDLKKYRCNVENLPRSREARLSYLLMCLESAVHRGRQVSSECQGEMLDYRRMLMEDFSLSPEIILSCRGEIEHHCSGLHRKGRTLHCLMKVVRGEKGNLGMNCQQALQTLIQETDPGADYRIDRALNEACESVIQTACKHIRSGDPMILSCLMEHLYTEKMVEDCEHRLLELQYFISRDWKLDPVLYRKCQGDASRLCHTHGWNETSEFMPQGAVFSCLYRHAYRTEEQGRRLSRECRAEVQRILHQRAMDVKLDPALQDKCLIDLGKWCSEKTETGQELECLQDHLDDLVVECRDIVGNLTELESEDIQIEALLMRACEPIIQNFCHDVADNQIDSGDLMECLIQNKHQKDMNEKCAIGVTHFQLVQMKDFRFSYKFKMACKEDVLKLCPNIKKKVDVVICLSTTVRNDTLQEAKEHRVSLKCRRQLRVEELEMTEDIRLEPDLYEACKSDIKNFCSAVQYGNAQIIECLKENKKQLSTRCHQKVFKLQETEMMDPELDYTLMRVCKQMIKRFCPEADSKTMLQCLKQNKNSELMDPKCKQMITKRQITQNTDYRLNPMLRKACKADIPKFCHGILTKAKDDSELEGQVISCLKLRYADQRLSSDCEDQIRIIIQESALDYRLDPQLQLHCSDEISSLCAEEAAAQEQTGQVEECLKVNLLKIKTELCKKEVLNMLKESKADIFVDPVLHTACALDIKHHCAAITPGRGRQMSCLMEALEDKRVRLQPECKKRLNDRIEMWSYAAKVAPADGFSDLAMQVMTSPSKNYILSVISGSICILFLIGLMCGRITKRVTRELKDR
UniProt P29992, whole entry, looked up: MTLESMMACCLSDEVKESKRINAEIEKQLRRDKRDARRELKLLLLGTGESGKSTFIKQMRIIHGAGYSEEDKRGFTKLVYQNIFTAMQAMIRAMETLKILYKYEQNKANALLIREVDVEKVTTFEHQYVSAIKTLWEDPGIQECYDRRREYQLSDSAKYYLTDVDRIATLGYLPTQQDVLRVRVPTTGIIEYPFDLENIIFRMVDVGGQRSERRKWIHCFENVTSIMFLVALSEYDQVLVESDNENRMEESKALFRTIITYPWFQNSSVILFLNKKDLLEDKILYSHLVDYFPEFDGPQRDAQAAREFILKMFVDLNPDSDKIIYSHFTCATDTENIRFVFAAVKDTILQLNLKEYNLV
UniProt O14908: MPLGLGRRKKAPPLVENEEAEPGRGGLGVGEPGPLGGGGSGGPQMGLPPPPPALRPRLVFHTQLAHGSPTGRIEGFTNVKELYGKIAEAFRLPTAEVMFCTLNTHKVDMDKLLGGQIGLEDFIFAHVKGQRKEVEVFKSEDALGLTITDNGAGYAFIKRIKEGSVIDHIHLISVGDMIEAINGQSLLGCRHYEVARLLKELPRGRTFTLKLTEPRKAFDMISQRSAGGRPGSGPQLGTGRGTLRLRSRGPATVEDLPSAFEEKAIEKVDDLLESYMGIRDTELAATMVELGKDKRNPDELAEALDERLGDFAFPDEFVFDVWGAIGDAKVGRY
UniProt Q8TBA6: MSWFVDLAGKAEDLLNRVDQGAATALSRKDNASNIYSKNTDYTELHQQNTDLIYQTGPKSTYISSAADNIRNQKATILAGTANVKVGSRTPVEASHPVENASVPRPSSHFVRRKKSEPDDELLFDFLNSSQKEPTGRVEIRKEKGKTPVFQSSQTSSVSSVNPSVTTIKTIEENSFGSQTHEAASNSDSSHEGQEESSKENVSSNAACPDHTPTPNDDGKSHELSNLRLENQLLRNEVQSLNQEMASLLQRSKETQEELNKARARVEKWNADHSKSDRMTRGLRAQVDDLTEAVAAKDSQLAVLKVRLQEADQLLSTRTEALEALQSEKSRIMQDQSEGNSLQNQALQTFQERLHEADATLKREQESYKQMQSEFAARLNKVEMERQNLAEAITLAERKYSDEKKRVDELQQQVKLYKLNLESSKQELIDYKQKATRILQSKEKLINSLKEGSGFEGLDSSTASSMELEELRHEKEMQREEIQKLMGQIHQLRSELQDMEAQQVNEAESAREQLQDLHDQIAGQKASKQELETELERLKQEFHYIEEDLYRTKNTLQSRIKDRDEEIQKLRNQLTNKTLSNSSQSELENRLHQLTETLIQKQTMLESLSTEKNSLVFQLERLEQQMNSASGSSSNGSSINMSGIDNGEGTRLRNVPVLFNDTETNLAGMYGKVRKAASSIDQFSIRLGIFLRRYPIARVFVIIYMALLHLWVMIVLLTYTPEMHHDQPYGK
UniProt Q9BYB4: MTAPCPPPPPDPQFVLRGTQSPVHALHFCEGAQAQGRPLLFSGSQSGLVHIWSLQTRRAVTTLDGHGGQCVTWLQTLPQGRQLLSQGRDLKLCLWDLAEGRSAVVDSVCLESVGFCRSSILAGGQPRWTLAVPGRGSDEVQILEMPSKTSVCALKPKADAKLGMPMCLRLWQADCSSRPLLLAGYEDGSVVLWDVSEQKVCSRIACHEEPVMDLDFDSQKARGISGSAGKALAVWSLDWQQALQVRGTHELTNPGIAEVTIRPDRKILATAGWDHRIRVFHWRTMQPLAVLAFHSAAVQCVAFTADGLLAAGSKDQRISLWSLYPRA
UniProt Q04760: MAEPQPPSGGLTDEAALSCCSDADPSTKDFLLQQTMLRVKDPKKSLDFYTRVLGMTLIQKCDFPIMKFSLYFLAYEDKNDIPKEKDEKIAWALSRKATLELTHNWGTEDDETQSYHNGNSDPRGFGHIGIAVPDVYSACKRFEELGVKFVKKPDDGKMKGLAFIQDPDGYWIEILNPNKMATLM
UniProt Q9Y3E0: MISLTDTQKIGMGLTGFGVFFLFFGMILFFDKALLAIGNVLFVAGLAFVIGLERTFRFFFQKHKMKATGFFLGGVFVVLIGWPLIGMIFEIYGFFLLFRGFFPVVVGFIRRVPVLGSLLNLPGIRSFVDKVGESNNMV
UniProt P25098: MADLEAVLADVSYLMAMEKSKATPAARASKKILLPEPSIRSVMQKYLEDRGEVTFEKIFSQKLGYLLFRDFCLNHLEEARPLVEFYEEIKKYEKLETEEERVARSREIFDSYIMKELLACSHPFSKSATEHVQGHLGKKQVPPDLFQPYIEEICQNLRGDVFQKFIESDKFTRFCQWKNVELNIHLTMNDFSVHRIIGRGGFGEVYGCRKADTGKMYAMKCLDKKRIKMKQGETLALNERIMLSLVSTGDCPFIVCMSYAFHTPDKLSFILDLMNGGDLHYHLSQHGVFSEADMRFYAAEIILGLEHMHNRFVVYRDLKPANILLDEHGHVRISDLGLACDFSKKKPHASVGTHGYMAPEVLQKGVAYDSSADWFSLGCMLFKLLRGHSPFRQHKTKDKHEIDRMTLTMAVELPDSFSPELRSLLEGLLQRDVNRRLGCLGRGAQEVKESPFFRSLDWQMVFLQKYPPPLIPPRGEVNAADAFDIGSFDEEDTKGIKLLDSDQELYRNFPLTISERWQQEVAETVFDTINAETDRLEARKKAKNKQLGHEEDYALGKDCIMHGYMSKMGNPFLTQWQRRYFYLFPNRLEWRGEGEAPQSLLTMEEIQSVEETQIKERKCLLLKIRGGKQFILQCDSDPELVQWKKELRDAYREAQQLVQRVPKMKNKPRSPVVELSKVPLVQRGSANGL
UniProt Q3T906: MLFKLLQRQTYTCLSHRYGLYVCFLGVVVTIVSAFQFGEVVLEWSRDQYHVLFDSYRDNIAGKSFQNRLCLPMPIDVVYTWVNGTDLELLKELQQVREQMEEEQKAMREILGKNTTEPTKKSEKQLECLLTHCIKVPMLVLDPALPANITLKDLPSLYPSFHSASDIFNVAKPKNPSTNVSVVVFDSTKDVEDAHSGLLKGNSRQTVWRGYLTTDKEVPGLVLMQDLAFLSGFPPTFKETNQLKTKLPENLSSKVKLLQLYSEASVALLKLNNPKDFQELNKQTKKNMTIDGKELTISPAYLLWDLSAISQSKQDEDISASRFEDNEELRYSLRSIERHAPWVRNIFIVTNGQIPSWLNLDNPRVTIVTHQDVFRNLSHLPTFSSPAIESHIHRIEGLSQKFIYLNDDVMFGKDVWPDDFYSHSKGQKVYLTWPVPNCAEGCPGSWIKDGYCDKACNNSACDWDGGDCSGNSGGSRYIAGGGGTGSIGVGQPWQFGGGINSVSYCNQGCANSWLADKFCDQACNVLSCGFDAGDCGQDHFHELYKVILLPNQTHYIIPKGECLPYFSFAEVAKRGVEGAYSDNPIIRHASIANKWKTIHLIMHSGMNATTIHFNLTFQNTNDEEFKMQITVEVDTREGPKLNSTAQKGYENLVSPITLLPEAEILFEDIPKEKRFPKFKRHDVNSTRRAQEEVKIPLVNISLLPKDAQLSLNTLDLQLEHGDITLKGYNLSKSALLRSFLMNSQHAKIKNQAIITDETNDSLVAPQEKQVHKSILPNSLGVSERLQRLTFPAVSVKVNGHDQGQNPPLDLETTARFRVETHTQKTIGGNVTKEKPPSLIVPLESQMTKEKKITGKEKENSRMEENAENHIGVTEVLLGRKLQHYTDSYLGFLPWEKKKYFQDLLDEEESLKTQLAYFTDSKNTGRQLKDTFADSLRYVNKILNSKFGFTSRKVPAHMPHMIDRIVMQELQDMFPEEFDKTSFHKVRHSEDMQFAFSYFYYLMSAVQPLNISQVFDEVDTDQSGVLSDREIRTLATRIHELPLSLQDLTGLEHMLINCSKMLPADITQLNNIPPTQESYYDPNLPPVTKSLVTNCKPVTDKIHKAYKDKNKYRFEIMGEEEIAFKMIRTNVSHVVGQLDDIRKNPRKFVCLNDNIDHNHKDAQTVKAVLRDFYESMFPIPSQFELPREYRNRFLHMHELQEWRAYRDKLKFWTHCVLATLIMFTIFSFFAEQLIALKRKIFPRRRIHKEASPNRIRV
UniProt Q9NPR9: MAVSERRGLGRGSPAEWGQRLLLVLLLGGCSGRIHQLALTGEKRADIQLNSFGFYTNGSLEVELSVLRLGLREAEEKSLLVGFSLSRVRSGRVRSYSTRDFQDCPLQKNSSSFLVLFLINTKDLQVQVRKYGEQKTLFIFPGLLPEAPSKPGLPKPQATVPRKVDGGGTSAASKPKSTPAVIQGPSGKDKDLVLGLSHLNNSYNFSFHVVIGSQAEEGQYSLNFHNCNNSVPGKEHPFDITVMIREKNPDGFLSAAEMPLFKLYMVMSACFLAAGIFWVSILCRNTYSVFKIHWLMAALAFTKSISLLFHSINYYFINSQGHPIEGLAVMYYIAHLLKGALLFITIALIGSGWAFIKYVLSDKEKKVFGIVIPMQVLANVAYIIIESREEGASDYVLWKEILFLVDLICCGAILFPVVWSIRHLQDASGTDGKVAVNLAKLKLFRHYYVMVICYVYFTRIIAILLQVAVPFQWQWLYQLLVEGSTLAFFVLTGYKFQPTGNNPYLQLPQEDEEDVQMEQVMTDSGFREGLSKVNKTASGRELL
UniProt P49840: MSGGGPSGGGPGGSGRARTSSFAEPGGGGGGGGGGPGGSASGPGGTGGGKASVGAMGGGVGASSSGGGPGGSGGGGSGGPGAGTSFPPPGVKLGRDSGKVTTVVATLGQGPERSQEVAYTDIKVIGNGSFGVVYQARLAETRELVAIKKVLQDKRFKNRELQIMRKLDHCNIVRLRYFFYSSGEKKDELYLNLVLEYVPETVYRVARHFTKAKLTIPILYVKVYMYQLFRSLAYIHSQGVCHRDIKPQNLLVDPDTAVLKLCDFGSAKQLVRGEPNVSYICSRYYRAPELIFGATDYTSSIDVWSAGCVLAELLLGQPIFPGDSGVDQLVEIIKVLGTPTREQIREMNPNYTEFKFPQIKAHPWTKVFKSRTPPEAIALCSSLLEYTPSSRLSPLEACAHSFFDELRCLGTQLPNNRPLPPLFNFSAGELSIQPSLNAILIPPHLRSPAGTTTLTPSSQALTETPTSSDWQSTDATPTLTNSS
UniProt Q9HC38: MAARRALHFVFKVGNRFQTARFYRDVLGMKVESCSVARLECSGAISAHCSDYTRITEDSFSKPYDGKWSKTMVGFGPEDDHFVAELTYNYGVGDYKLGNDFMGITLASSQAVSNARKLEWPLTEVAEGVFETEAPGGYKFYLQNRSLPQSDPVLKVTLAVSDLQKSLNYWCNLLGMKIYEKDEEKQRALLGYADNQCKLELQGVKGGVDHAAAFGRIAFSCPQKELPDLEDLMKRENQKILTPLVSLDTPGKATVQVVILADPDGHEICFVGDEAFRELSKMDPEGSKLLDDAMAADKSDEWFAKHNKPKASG

Legend:
Test in all cases: log2 fold change, soluble protein after heating vs DMSO (PISA); higher = thermal stabilisation; K562 cells, 10 uM, 30 min; active = over 0.2 and 3.5 SD of the protein, either way, in both replicates (recomputed)
erlotinib = compound: C#Cc1cccc(Nc2ncnc3cc(OCCOC)c(OCCOC)cc23)c1 [erlotinib]
Procedure, shortened: (§1)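 Soluble protein was defined as the supernatant after 21,000xg for 90 min. It came from K562 cells at 2×10^6 cells/mL given 10 μM compound for 30 min, heated in aliquots for 3 min across 48°C-58°C, pooled, and extracted in PBS with 0.5% NP-40 at 4°C, and was quantified by TMTpro 16plex LC-MS/MS with equalised channel sums. Thermal stability against control samples, from duplicates, is reported as log2 fold change.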

[1] = compound: C/C(=N\NC(=O)C1=CC(=CC=C1)S(=O)(=O)N2CCOCC2)/C3=C(C=CC(=C3)Cl)O
Procedure, shortened: as §1

[2] = compound: C1=CC(=C(C=C1Cl)C2=NC3=NC=CN=C3C(=N2)NC4=CC=NC=C4)F
Procedure, shortened: as §1

[3] = compound: C1=CC(=CC=C1C2=NC3=C(N2)C=C(C=C3)C(=O)N)OC4=CC=C(C=C4)Cl
Procedure, shortened: as §1

[4] = compound: C1=CC2=C(C=CC(=C2)/C=C\3/C(=O)NC(=NCC4=CC=CS4)S3)N=C1
Procedure, shortened: as §1

[5] = compound: C1=CC2=NC=CN=C2C=C1/C=C/3\C(=O)NC(=O)S3
Procedure, shortened: as §1

[6] = compound: C1=CC=C(C=C1)C2=NC(=C(N2)C3=CC=NC=C3)C4=CC(=C(C=C4)Cl)O
Procedure, shortened: as §1

[7] = compound: C1=CC=C2C(=C1)C3=NNC4=CC=CC(=C43)C2=O
Procedure, shortened: as §1

[8] = compound: C1CCN(C1)C(=O)NC2=CC=CC(=C2)NC3=NC=C(C(=N3)NCCC4=CN=CN4)Br
Procedure, shortened: as §1

[9] = compound: C1CN(CCC1(CC2=CC=C(C=C2)Cl)N)C3=NC=NC4=C3C=CN4
Procedure, shortened: as §1

Target | log2 fold change (erlotinib) | log2 fold change [1] | log2 fold change [2] | log2 fold change [3] | log2 fold change [4] | log2 fold change [5] | log2 fold change [6] | log2 fold change [7] | log2 fold change [8] | log2 fold change [9]
GK (UniProt P32189) | inactive: -0.015 | inactive: -0.031 | inactive: 0.037 | inactive: -0.001 | inactive: -0.002 | inactive: 0.032 | inactive: 0.012 | inactive: 0 | inactive: 0.007 | inactive: 0.034
GLG1 isoform 2 (UniProt Q92896) | inactive: -0.002 | inactive: 0.027 | inactive: 0.1 | inactive: 0.005 | inactive: -0.022 | inactive: 0.062 | inactive: -0.004 | inactive: -0.04 | inactive: -0.012 | inactive: 0.054
GNA11 (UniProt P29992) | inactive: 0.002 | inactive: 0.058 | inactive: 0 | inactive: 0.046 | inactive: 0.003 | inactive: 0.006 | inactive: 0.024 | inactive: -0.032 | inactive: -0.044 | inactive: 0.037
GPS1 isoform 7 (UniProt Q13098) | inactive: -0.013 | inactive: 0.033 | inactive: 0 | inactive: -0.013 | inactive: -0.007 | inactive: 0.007 | inactive: -0.007 | inactive: 0.021 | inactive: -0.018 | inactive: 0.011
GMDS (UniProt O60547) | inactive: 0.001 | inactive: 0.042 | inactive: 0.021 | inactive: -0.011 | inactive: 0.056 | inactive: 0.029 | inactive: -0.017 | inactive: 0 | inactive: -0.008 | inactive: 0.085
GLUD1 (UniProt P00367) | inactive: 0.068 | inactive: -0.009 | inactive: 0.051 | inactive: 0.026 | inactive: 0.039 | inactive: -0.018 | inactive: -0.033 | inactive: 0 | inactive: 0.05 | inactive: -0.027
GIPC1 (UniProt O14908) | inactive: 0.055 | inactive: 0.035 | inactive: -0.013 | inactive: -0.038 | inactive: 0.068 | inactive: -0.054 | inactive: 0.012 | inactive: -0.014 | inactive: -0.005 | inactive: -0.095
GOLGA5 (UniProt Q8TBA6) | inactive: -0.021 | inactive: 0.024 | inactive: 0.031 | inactive: -0.012 | inactive: 0.003 | inactive: 0.065 | inactive: -0.016 | inactive: -0.068 | inactive: -0.044 | inactive: 0.007
GMFG (UniProt O60234) | inactive: -0.019 | inactive: 0.017 | inactive: 0.014 | inactive: -0.016 | inactive: 0.004 | inactive: 0.01 | inactive: 0.028 | inactive: -0.012 | inactive: -0.018 | inactive: -0.027
GMPPB isoform 2 (UniProt Q9Y5P6) | inactive: 0.045 | inactive: 0.01 | inactive: 0.018 | inactive: 0.001 | inactive: 0.041 | inactive: -0.035 | inactive: 0.022 | inactive: 0.003 | inactive: -0.014 | inactive: 0.033
GLYR1 (UniProt Q49A26) | inactive: -0.053 | inactive: -0.211 | inactive: -0.289 | inactive: 0.05 | inactive: -0.352 | inactive: 0.1 | inactive: -0.021 | inactive: -0.034 | inactive: 0.119 | inactive: -0.03
GNB1L (UniProt Q9BYB4) | inactive: 0.007 | inactive: 0.017 | inactive: 0.103 | inactive: 0.081 | inactive: 0.003 | inactive: 0.025 | inactive: -0.003 | inactive: -0.038 | inactive: -0.039 | inactive: 0.019
GOLGB1 isoform 2 (UniProt Q14789) | inactive: -0.152 | inactive: -0.045 | active: -0.312 | inactive: -0.055 | inactive: 0.099 | inactive: 0.071 | inactive: -0.049 | inactive: -0.059 | inactive: -0.059 | inactive: -0.08
GPR107 (UniProt Q5VW38) | inactive: -0.049 | inactive: -0.024 | inactive: 0.028 | inactive: 0 | inactive: -0.018 | inactive: 0.006 | inactive: 0.011 | inactive: -0.029 | inactive: -0.013 | inactive: 0.057
GLO1 (UniProt Q04760) | inactive: 0.009 | inactive: 0.028 | inactive: 0.085 | inactive: -0.013 | inactive: 0.003 | inactive: -0.004 | inactive: 0.011 | inactive: -0.001 | inactive: 0.031 | inactive: 0.048
GPBP1L1 (UniProt Q9HC44) | inactive: 0.009 | inactive: -0.087 | inactive: 0.031 | inactive: 0.014 | inactive: -0.013 | inactive: -0.001 | inactive: -0.134 | inactive: -0.054 | inactive: 0.007 | inactive: -0.019
GRHPR (UniProt Q9UBQ7) | inactive: 0.049 | inactive: 0.038 | inactive: 0.044 | inactive: -0.006 | inactive: -0.015 | inactive: -0.06 | inactive: 0.022 | inactive: 0.065 | inactive: -0.086 | inactive: 0.062
GOLT1B (UniProt Q9Y3E0) | inactive: 0.042 | inactive: 0.01 | inactive: 0.012 | inactive: 0.028 | inactive: 0.009 | inactive: 0.032 | inactive: 0.077 | inactive: -0.056 | inactive: -0.01 | inactive: 0.059
GRK2 (UniProt P25098) | inactive: 0.015 | inactive: 0.044 | inactive: 0.028 | inactive: 0.009 | inactive: 0.052 | inactive: -0.003 | inactive: 0.01 | inactive: 0.033 | inactive: -0.016 | inactive: 0.086
GIGYF2 (UniProt Q6Y7W6) | inactive: 0.062 | inactive: 0.081 | inactive: -0.022 | inactive: -0.03 | inactive: 0.05 | inactive: 0.014 | inactive: 0.009 | inactive: 0.025 | inactive: -0.039 | inactive: -0.025
GINS1 (UniProt Q14691) | inactive: 0.017 | inactive: 0.034 | inactive: 0.086 | inactive: 0.007 | inactive: 0 | inactive: 0.023 | inactive: 0.072 | inactive: -0.031 | inactive: 0.007 | inactive: 0.023
GPBP1 isoform 2 (UniProt Q86WP2) | inactive: 0.214 | inactive: -0.103 | inactive: -0.013 | inactive: 0.099 | inactive: 0.006 | inactive: -0.059 | inactive: -0.001 | inactive: -0.055 | inactive: -0.033 | inactive: 0.045
GNPTAB (UniProt Q3T906) | inactive: 0.063 | inactive: 0 | inactive: 0.087 | inactive: 0.045 | inactive: 0.029 | inactive: -0.004 | inactive: -0.124 | inactive: -0.053 | inactive: 0.085 | inactive: -0.079
GPR108 (UniProt Q9NPR9) | inactive: -0.031 | inactive: 0.004 | inactive: -0.042 | inactive: 0.036 | inactive: 0.005 | inactive: 0.036 | inactive: 0.019 | inactive: -0.006 | inactive: 0.016 | inactive: 0.05
GSK3A (UniProt P49840) | inactive: -0.02 | inactive: 0.015 | inactive: 0.01 | inactive: 0.045 | inactive: -0.001 | inactive: -0.001 | inactive: 0.18 | inactive: 0.147 | inactive: 0.131 | inactive: 0.019
GLOD4 isoform 2 (UniProt Q9HC38) | inactive: 0.007 | inactive: 0.064 | inactive: 0.04 | inactive: -0.023 | inactive: 0.049 | inactive: 0.01 | inactive: 0.002 | inactive: 0.029 | inactive: 0.012 | inactive: -0.009
GNPNAT1 (UniProt Q96EK6) | inactive: -0.053 | inactive: 0.007 | inactive: 0.032 | inactive: -0.005 | inactive: 0 | inactive: -0.035 | inactive: 0.002 | inactive: 0.017 | inactive: -0.042 | inactive: -0.002

2 records drawn at random from those above:
Target | log2 fold change (erlotinib) | log2 fold change [1] | log2 fold change [2] | log2 fold change [3] | log2 fold change [4] | log2 fold change [5] | log2 fold change [6] | log2 fold change [7] | log2 fold change [8] | log2 fold change [9]
GNA11 (UniProt P29992) | inactive: 0.002 | inactive: 0.058 | inactive: 0 | inactive: 0.046 | inactive: 0.003 | inactive: 0.006 | inactive: 0.024 | inactive: -0.032 | inactive: -0.044 | inactive: 0.037
GSK3A (UniProt P49840) | inactive: -0.02 | inactive: 0.015 | inactive: 0.01 | inactive: 0.045 | inactive: -0.001 | inactive: -0.001 | inactive: 0.18 | inactive: 0.147 | inactive: 0.131 | inactive: 0.019
